Experimental findings from publication PMC7195429 are described below.

Sequences of proteins named here, by UniProt entry; tags and fusion partners are left off. A change or cut given only in a name is not applied to a line headed by its entry.
UniProt Q45GQ3: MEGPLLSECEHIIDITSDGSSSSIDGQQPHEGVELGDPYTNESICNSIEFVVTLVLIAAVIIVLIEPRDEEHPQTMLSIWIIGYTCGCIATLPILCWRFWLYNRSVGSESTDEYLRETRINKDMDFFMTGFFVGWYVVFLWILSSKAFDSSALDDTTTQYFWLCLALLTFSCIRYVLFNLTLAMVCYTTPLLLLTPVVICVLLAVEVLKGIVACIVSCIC

Test [1] addresses T1, BD-ECH (Arabidopsis thaliana) (UniProt Q8LEK2).
T1 sequence: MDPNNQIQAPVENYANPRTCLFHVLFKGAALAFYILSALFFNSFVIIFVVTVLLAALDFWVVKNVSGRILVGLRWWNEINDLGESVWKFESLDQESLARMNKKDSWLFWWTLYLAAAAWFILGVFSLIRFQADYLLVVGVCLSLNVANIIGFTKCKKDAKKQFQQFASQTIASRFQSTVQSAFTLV
Kind of test: two-hybrid; GAL4-based yeast two-hybrid, strain PJ69-4A; AD-SYAC1 (prey) with BD fusions (bait); SD -Leu/-Trp/-His with 3-amino-1,2,4-triazole.

Test [2] deals with T2, BD-KCR1 (Arabidopsis thaliana) (UniProt Q8L9C4).
T2 sequence: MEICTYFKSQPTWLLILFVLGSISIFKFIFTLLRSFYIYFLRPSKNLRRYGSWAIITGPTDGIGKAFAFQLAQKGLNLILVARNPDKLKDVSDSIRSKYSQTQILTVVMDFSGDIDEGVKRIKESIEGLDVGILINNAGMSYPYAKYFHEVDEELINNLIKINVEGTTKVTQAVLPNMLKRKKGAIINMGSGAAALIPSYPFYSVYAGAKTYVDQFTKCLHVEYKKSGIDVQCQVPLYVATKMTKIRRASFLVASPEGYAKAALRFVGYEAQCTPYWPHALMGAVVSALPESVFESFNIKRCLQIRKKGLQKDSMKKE
The test is described as above.

Test [3] concerns the target T3, BD-YIP4a (Arabidopsis thaliana) (UniProt O64614).
T3 sequence: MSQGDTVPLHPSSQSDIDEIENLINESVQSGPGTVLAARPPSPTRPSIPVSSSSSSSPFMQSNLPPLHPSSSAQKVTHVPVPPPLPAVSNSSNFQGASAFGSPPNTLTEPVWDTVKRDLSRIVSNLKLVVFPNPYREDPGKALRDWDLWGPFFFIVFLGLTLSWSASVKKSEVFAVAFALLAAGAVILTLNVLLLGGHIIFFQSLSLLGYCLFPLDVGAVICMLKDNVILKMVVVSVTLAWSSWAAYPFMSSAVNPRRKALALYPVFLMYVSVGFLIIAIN
The description is as above.

Test [4] deals with T4, BD-YIP4b (Arabidopsis thaliana) (UniProt Q93VH1).
T4 sequence: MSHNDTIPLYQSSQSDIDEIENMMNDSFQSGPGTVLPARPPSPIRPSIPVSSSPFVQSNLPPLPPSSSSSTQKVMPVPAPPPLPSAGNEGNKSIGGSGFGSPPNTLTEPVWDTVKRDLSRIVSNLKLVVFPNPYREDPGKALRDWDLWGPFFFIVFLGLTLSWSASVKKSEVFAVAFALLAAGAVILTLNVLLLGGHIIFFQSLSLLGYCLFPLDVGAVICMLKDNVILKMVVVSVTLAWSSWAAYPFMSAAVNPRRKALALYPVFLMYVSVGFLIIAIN
The description is as above.

Test [5] addresses T5, YIP4a-MYC (Arabidopsis thaliana) (UniProt O64614).
T5 sequence: T3 sequence
Kind of test: co-IP; co-transfected Arabidopsis root cell culture protoplasts; lysate with 150 mM NaCl; anti-GFP or anti-Myc immunoprecipitation on Protein G magnetic beads, 4 °C; blot with anti-HA.

The target of test [6] is T6, nEYFP-ECH (Arabidopsis thaliana) (UniProt Q8LEK2).
T6 sequence: T1 sequence
Kind of test: split reporter; BiFC with cEYFP-SYAC1 and nEYFP fusions mixed 1:1, transiently expressed in Arabidopsis root suspension culture protoplasts; confocal microscopy.

The target in test [7] is T7, nEYFP-KCR1 (Arabidopsis thaliana) (UniProt Q8L9C4).
T7 sequence: T2 sequence
The test is described as above.

For test [8], the target named is T8, nEYFP-PHB4 (Arabidopsis thaliana) (UniProt Q9LK25).
T8 sequence: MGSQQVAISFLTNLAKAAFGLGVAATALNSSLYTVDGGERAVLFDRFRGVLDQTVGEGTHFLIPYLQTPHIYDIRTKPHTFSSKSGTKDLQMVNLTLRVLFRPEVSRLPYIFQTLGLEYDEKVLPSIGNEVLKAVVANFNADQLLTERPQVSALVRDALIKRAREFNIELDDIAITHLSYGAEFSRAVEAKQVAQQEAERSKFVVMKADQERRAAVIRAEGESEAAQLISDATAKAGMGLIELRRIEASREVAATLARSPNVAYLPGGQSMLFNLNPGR
The description is as above.

Test [9] addresses T9, nEYFP-YIP4a (Arabidopsis thaliana) (UniProt O64614).
T9 sequence: T3 sequence
The description is as above.

For test [10], the target named is T10, nEYFP-YIP4b (Arabidopsis thaliana) (UniProt Q93VH1).
T10 sequence: T4 sequence
Described as above.

Test [11] deals with SYAC1-GFP (Arabidopsis thaliana). Kind of test: co-IP; co-transfected Arabidopsis root cell culture protoplasts; lysate with 150 mM NaCl; anti-GFP or anti-Myc immunoprecipitation on Protein G magnetic beads, 4 °C; blot with anti-HA.

These are yes or no findings as the source states them, for the method shown. For some assays here: A result given as binding can be weak or reduced; the word gives no strength. For some assays here: Where a sequence is shown, tags or fusion partners need not be part of it. For some assays here: Binding seen in cells or lysates may run through a third protein.

On to AD-SYAC1 (from UniProt Q45GQ3), for which the binding entry in test [1] is listed as “binds”; in [2], “binds weakly”; in [3], “binds”; in test [4] it was “binds”.

Consider SYAC1-HA (Arabidopsis thaliana), for which the binding result in test [5] was “binds”.

As for cEYFP-SYAC1 (Arabidopsis thaliana), the binding entry in test [6] is on record as “binds”; in test [7], “no binding”; in test [8], “no binding”; in test [9] it was “binds”; in test [10], “binds”.

B1: ECH-HA (protein, UniProt Q8LEK2 1-186)
chain: T1 sequence
With B1, in test [11], the binding result was “binds”.
